No constants are given. Whether binding was seen depends on the method and setting. Some entries that bind do so weakly or less than the wild type.
Target: M. musculus skeletal calsequestrin (MmCasq1) (mouse (M. musculus)) (UniProt O09165)
Assay: cryo-electron tomography of purified protein (self-association, homodimer)

Amino acid sequences for entries named in this document (tags omitted). A change or cut given only in a name is not applied to a line headed by its entry.
UniProt O09165: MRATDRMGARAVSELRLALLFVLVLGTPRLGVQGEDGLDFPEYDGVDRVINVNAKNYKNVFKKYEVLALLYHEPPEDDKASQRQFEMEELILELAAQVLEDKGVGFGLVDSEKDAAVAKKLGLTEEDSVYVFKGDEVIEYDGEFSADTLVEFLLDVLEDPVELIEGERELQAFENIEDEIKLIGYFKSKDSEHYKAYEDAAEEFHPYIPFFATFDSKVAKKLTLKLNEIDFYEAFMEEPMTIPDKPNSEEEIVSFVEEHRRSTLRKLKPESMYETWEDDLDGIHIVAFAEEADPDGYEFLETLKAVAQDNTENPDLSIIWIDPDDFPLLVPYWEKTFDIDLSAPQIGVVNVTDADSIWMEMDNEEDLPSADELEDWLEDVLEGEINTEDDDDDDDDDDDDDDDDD

M. musculus skeletal calsequestrin (MmCasq1) (from UniProt O09165 35-405)
binding: binds

From patent US20250003955A1
